This note sets out measurements from patent US20240041593A1, “CARDIAC VALVE PROSTHESIS” (GROWNVALVE GMBH, priority 2020, published 2024).

The structures appear in SMILES notation.

The data set in a line: tensile test of shaped, cross-linked body tissue. Also noted: species or system human and animal. The following applies: for stress resistance: FIG. 1, compound X 0.05% 24 hours, GA 0.2 to 0.625% 20 minutes. As for the experimental part: To identify whether different cross-linking agents might have a different effect on the cross-linking of body tissue, in vitro tests were performed. For this purpose, human and animal body tissue was used and shaped in a deep-drawing process to give the body tissue the shape and size of a cardiac valve, namely of a pulmonary artery valve.
Afterwards, the shaped body tissue was fixated and stabilized by the addition of two different cross-linking agents. On the one hand, glutaraldehyde (GA) was used, on the other hand a compound having the structure of formula (X) was used. The latter compound will be referred to as compound X in the following. The final concentration of GA was chosen to be in a range of 0.2 to 0.625% in the treatment solution. The final concentration of compound X was chosen to be 0.05% in the treatment solution. The incubation was carried out over time period of 20 minutes (GA) or 24 hours (compound X) at a temperature lying in a range of 20° C. to 40° C. The treatment solution containing the cross-linking agent was buffered by a citrate buffer in a pH range of pH 4.8 to pH 5.0. Within the first 30 minutes of the cross-linking process, the shaped body tissue and the treatment solution were agitated by a rocking shaker at 100 rpm.
Afterwards, a tensile test was carried out.
At the same time, the maximum achieved strain was 10% higher in case of the cross-linking with GA than in case of compound X (57% vs. 51%). For the functioning of a cardiac valve, however, a higher stress resistance and a sufficiently high strain resistance is believed to be more important than a high strain resistance alone. Therefore, it was decided to carry out subsequent characterization tests only with respect to the shaped body tissue cross-linked with compound X.

On to `O=CCCCC=O` [GA, glutaraldehyde], for which the stress resistance is recorded as 6.7 MPa. For the setting “FIG. 1”, the maximum achieved strain amounted to 57% and the “maximum achieved strain, higher than in case of compound X” value is on record as 10%.
`C/C=C1\C(O)OC=C(C(=O)OC)C1CC(=O)OCCc1ccc(O)c(O)c1` (stereo not drawn) [compound X] returned a stress resistance of 9.5 MPa. For the same compound, where the note is “FIG. 1”, the maximum achieved strain was 51% and the “stress resistance relative to body tissue cross-linked with GA” value is listed as 1.5 fold.
